From article PMC6008489 (Bioorganic & Medicinal Chemistry, 2018)

Tested on: panel of 26 protein kinases
Test: Selectivity score over the 26-kinase panel
Format: biochemical, human
Settings: for selectivity score S(30%): ratio of the 26 kinases inhibited above 30%; for selectivity score S(50%): ratio of the 26 kinases inhibited above 50%; for selectivity score S(80%): ratio of the 26 kinases inhibited above 80%

| Structure (SMILES) | selectivity score S(30%) (compound at 100 µM) | selectivity score S(50%) (compound at 100 µM) | selectivity score S(80%) (compound at 100 µM) | number of members of the 26-kinase panel inhibited >50% (compound at 100 µM) | number of members of the 26-kinase panel inhibited >50% (compound at 30 µM) | selectivity score S(30%) (compound at 30 µM) | selectivity score S(50%) (compound at 30 µM) | selectivity score S(80%) (compound at 30 µM) |
| --- | --- | --- | --- | --- | --- | --- | --- | --- |
| Nc1ccc[nH]c1=O [Compound 1, 3-aminopyridin-2-one] | 0.31 | 0.08 | – | – | – | – | – | – |
| Cn1cc(-c2c[nH]c(=O)c(N)c2)cn1 [Compound 2, 3-Amino-5-(1-methyl-1H-pyrazol-4-yl)pyridin-2(1H)-one] | 0.92 | 0.77 | 0.46 | – | – | – | – | – |
| COc1ncc(-c2ccncc2)cc1N [Compound 5, 6-Methoxy-3,4′-bipyridin-5-amine] | 0.27 | 0.08 | – | – | – | – | – | – |
| Nc1cc(-c2ccnc3ccccc23)c[nH]c1=O [Compound 6] | 0.42 | 0.19 | – | – | – | – | – | – |
| CNc1nccc(-c2c[nH]c(=O)c(N)c2)n1 [Compound 7] | 0.96 | 0.92 | 0.42 | – | – | – | – | – |
| Nc1cc(-c2ccnc(NC3CC3)n2)c[nH]c1=O [Compound 8] | 0.58 | 0.35 | 0.19 | – | – | – | – | – |
| Cc1nc(O)c(N)cc1-c1ccncc1 [Compound 15, 3-Amino-6-methyl-5-(pyridin-4-yl)pyridin-2-one] | 0.23 | 0.04 | – | one | – | – | – | – |
| O=C(Nc1cc(-c2ccncc2)c[nH]c1=O)c1ccccc1 [Compound 16, N-(2-Oxo-5-(pyridin-4-yl)-1,2-dihydropyridin-3-yl)benzamide] | – | – | – | – | eight | 0.35 | 0.31 | 0.04 |
| CN1CCN(c2ccc(C(=O)Nc3cc(-c4ccncc4)c[nH]c3=O)cc2)CC1 [Compound 22] | – | – | – | – | – | 0.54 | 0.38 | 0.35 |
| O=C(Nc1cc(-c2ccnc(NC3CC3)n2)c[nH]c1=O)c1ccccc1 [Compound 24] | – | – | – | – | – | 0.88 | 0.77 | 0.38 |
